Experimental data from paper PMC12251889.

Amino acid sequences for entries named in this document (tags omitted). A change or cut given only in a name is not applied to a line headed by its entry.
UniProt Q43011: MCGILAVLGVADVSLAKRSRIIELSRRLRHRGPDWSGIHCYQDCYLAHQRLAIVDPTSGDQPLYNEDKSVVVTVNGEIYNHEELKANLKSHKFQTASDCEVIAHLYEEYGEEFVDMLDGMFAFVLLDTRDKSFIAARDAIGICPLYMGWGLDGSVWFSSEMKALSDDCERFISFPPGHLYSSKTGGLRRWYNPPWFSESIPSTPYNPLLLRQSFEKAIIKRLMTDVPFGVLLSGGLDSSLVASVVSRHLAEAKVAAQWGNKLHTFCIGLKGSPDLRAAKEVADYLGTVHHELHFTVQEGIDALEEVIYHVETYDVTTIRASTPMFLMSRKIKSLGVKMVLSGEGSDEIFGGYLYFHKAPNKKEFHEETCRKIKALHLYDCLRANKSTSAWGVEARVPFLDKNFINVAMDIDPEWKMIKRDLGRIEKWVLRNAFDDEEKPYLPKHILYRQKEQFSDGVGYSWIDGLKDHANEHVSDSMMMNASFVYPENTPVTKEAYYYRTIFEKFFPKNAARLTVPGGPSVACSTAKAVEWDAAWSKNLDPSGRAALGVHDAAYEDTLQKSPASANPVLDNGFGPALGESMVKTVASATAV

Biological target: OsASN2-GFP fusion protein (rice) (UniProt Q43011)
Assay: affinity purification with mass spectrometry; soluble protein extract of 35S:OsASN2-GFP transgenic rice plants incubated with anti-GFP beads; 35S:GFP plants as control; eluate analysed by LC-MS/MS

- binding: binds
B1: pyruvate phosphate dikinase OsPPDKB (enzyme, UniProt Q6AVA8 72-947)
chain: TTKKRVFHFGKGKSEGNKAMKDLLGGKGANLAEMASIGLSVPPGFTVSTEACQQYQAAGKTLPAGLWEEIVEGLQWVEEYMAARLGDPARPLLLSVRSGAAVSMPGMMDTVLNLGLNDEVAAGLAAKSGDRFAYDSYRRFLDMFGNVVMDIPHALFEEKLEAMKAVKGLHNDTDLTATDLKELVAQYKDVYVEAKGEPFPSDPKKQLQLAVLAVFNSWDSPRAIKYRSINKITGLKGTAVNVQTMVFGNMGNTSGTGVLFTRNPSTGEKKLYGEFLVNAQGEDVVAGIRTPEDLDAMRDHMPEPYEELVENCKILESHYKEMMDIEFTVQENRLWMLQCRTGKRTGKGAVKIAVDMVNEGLVERRTALKMVEPGHLDQLLHPQFENPSGYKDKVIATGLPASPGAAVGQIVFTAEDAEAWHAQGKDVILVRTETSPEDVGGMHAAVGILTARGGMTSHAAVVARGWGKCCVSGCSSVRVNDASKIVVIEDKALHEGEWLSLNGSTGEVIIGKQPLCPPALSGDLETFMSWVDEVRKLKVMANADTPEDATTARQNGAEGIGLCRTEHMFFASDERIKAVRQMIMASSLELRQKALDRLLPYQRSDFEGIFRAMDGLPVTIRLLDPPLHEFLPEGHVEDMVRELCSETGAAQDDVLARVEKLSEVNPMLGFRGCRLGISYPELTEMQARAIFEAAITMTNQGIQVFPEIMVPLVGTPQELGHQVDVIRQIANKVFTDMGKTIGYKVGTMIEIPRAALVADEIAEQAEFFSFGTNDLTQMTFGYSRDDVGKFLPIYLSQGILQHDPFEVLDQRGVGELVKLATERGRKARPNLKVGICGEHGGEPLSVAFFAKAGLDYVSCSPFRVPIARLAAAQVLL

Results are given in words; binding and its absence hold for the method and conditions named. Binding seen in cells or lysates may run through a third protein. These calls come from enrichment with a bait or labelling near it, and not all partners need be listed.
